The list shows a part of the results, in another mix than the full data. At the low end of the ranking the order means little.

Sequences of proteins named here, by UniProt entry; tags and fusion partners are left off. A change or cut given only in a name is not applied to a line headed by its entry.
UniProt O43186: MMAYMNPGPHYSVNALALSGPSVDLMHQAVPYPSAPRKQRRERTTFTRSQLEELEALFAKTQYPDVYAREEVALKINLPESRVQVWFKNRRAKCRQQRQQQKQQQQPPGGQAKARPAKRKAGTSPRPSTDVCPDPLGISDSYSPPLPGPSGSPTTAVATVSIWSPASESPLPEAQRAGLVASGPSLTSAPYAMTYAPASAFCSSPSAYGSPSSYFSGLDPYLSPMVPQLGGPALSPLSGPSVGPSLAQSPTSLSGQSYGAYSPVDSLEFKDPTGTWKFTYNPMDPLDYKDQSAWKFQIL

Data on 39 sequences can be found in PMC7862700.

The target of this experiment is CRX (UniProt O43186). The experiment is described as follows: DAPPL (digital affinity profiling via proximity ligation, sequencing). Particulars: 10 mM Tris-HCl pH 7.5, 50 mM NaCl, 1 mM DTT, 4% glycerol, room temperature, 30 min; GST-TFs on glutathione beads, 16-mer random dsDNA library, 0.1% …; high values mean tight binding; double strand, one strand shown; scale: fold enrichment (6-mer frequency, TF over GST control).
On to AACGAT, for which the binding signal turned out to be 1.38.

In turn, ACACTG came in with a binding signal of 0.849.

GGAACT yielded a binding signal of 0.937.

With TTACTT, the binding signal was determined as 1.95.

For GTCTCT, the binding signal turned out to be 1.

With GTCCTT, the binding signal worked out at 0.99.

AACCAC returned a binding signal of 0.979.

ATCTTG showed a binding signal of 1.54.

AGTATT displayed a binding signal of 1.57.

The sequence TACAAT registered a binding signal of 1.44.

With CATTAT, the binding signal was found to be 1.65.

For CCCTCA, the binding signal amounted to 0.975.

On to GAAACA, for which the binding signal turned out to be 0.836.

TAATCG showed a binding signal of 2.89.

CAACGA registered a binding signal of 0.84.

In turn, TTGCTG yielded a binding signal of 1.26.

The sequence TCTGTA had a binding signal of 1.34.

On to CTATTG, for which the binding signal is 1.14.

CACACC gave a binding signal of 0.725.

Regarding ATGTTT, the binding signal was 1.26.

The sequence ACCATT gave a binding signal of 0.97.

In turn, AAATAA registered a binding signal of 1.71.

In the case of GTCCTG, the binding signal turned out to be 0.822.

As to ATATAA, the binding signal came to 1.68.

In the case of ATTGTT, the binding signal was 1.55.

For CCACCC, the binding signal worked out at 0.931.

For the sequence GCAACT, the binding signal is 0.878.

Take AACAAG: the binding signal was 0.978.

Sequence AAATAC showed a binding signal of 1.46.

For the sequence CCGGCC, the binding signal came out at 0.686.

In the case of TGATCG, the binding signal turned out to be 1.21.

Regarding CACTGC, the binding signal stood at 0.975.

ACGTAC registered a binding signal of 0.928.

Sequence TAAACC displayed a binding signal of 2.11.

The sequence TCATGT returned a binding signal of 0.953.

In turn, TGATGA displayed a binding signal of 1.24.

In the case of TCCGTA, the binding signal is 1.21.

TTTGTA displayed a binding signal of 1.89.

As for ATATCT, the binding signal stood at 1.39.
